Screening data, single-dose tests

Source: ChEMBL document CHEMBL3988442, “University of Dundee, Small-Polar-MMV Screening Library” (2021).

The filed quantity is “Percent Effect” (%).
The controls that fix the scale are not given in the record; negative values are as filed.
The compounds are a random part of those screened.

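Growth of Mycobacterium tuberculosis over 3 days (7H9 medium with glucose and tyloxapol); the read-out is not stated. Compounds at 500 µM. Direction is inferred from retests: higher values go with more growth inhibition. Of about 18,000 compounds tested this way, about 1,400 (7.9%) reached 50% or more in at least one test.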

Compound,Percent Effect
COc1cc(C(=O)N(CCO)CC2CC2)ccc1C,44.42
CN(Cc1nc(-c2ccc(F)cc2)cs1)CC(O)CO (centres unmarked),37.73
NC(=O)COc1cccc(NC(=O)c2ccc(Br)o2)c1,25.24
Cc1c(Br)cccc1CC(=O)NC1CCC(=O)NC1 (centres unmarked),7.7
CC(=O)N1CCC2(CCNC2)C1 (centres unmarked),5.995
CCCNS(=O)(=O)c1ccc(OCC)nc1,41.8
OCC1(CNCc2ccccc2)CC1,-1.815
O=c1[nH]ccn2nc(-c3ccc4c(c3)OCO4)cc12,2.784
O=C(C1Cc2cc(Cl)ccc2O1)N1CCOCC1 (centres unmarked),51.07
CCc1ccc(C(=O)NC2CNC[C@@H]2OC)o1 (some centres unmarked),-10.72
CCCc1ncncc1C(=O)NC(CC)[C@H]1C[C@H](O)C1 (some centres unmarked),-8.159
CC1(N)CCN(Cc2ccccc2)C1 (centres unmarked),4.695
CC1CCN(C(=O)NCCCOC2CCOCC2)C1 (centres unmarked),-3.853
NCC(CO)Cc1cccnc1 (centres unmarked),-1.702
Cn1ncc(Cl)c1C(=O)NCCN1CCCCC1,7.281
CC(C)N(C)Cc1nc(C2CCOC2)no1 (centres unmarked),3.174
CCCn1ccnc1CNC(=O)CCNS(C)(=O)=O,-8.419
CCOC(=O)C(C)NC(=O)c1cn(C)nc1SC (centres unmarked),5.141
Cc1ccn(Cc2ncnn2CC(C)C)c(=O)c1C#N,-1.899
O=C(NCc1ccc2c(c1)OCO2)n1ccnc1,16.03
CCN(C)C(C)(C)C(=O)Nc1ncccc1O,-0.8706
Cc1cc(C(=O)N2CCN(Cc3ccsc3)CC2)[nH]n1,77.11
CCn1c(CN(C)CCCO)nnc1[C@H]1C[C@@H](N)C1,0.2832
CCc1ncc(CN(C)c2ncccc2S(N)(=O)=O)s1,-58.39
CCc1ncc(C(=O)NCCNC(=O)c2ccoc2)s1,26.47
COCCCn1cnn(C(C)(C)C)c1=O,-0.5773
CC(=O)c1c[nH]c(C(=O)NC2(C)CCS(=O)(=O)C2)c1 (centres unmarked),-2.825
CNC(=O)NCCNc1ccccc1,11.12
Cc1cc(CN)[nH]n1,5.991
CN(C)CCC(N)c1ccccc1 (centres unmarked),11.29
Cc1nccn1CCC(=O)Nc1sccc1C#N,20.83
CC(NCCN1CCOCC1)C1CCOCC1 (centres unmarked),1.571
Cc1ccc(-c2cc(C(N)=O)[nH]n2)cc1C,5.527
c1cn2c(n1)CCC2,6.831
Cc1ocnc1C(=O)N(CCO)Cc1ccccc1Cl,26.78
O=C(NCC1CCCO1)Nc1cn[nH]c1 (centres unmarked),2.217
COc1cccc(OCC(=O)NCC2CCCO2)c1 (centres unmarked),63.07
OCCNC1CCCSC1 (centres unmarked),11.57
CC(N)c1nnc2n1CCCC2 (centres unmarked),6.389
Cc1cccn2cc(CC(=O)NC(C)C#N)nc12 (centres unmarked),-9.687
O=C(NC1CC1)NC(CO)c1ccc(F)cc1 (centres unmarked),14.28
NCc1ccnc(OC(F)F)c1,20.59
NC(=O)[C@@H]1Cc2ccccc2N1C(=O)C1CCOCC1,4.853
CCO[C@H]1COC[C@@H]1NC(=O)c1cn(CCN)nn1,-9.4
CNCCC1CCN(c2ccncc2)CC1,-3.697
Cc1cccc(C(=O)Nc2cc[nH]n2)c1F,15.97
CCOc1nc(N2CC(O)C2)ncc1Br,-19
COc1ncc(C)cc1NC(=O)CCc1cccnc1,-5.94
COCCOc1ccc(C#N)cn1,6.79
COc1ccc(Br)c(CN)c1,62.96
CC(C#N)OC(=O)c1ccccc1 (centres unmarked),1.945
Cc1ccc(S(=O)(=O)NCCN)cc1Br,42.12
CCN1CCN(c2c(Cl)cccc2NC(C)=O)CC1,19.67
Cc1nn(C)c2c1NC(=O)CO2,-10.57
Cn1nccc1C(=O)Nc1cnn(CC(F)(F)F)c1,35.99
O=C1CCCOc2ccc(F)cc21,-4.17
O=C(Cc1ccc(F)cc1)N1CCNCC1,2.166
COc1cc(NCc2cc[nH]n2)cc(OC)c1,7.782
COc1ccc(CCNC2=NCCS2)cc1,32.44
COCC(C)NC(=O)Cc1csc(-c2ccccn2)n1 (centres unmarked),13.14
CC(C)N1CCCC(N2CCNCC2)C1=O (centres unmarked),-7.353
CCN(CC)C(=O)CN1CCCC(C)C1 (centres unmarked),1.386
NCCc1nccn1Cc1ccccc1,36.4
CN1C[C@@H]2CN(Cc3ccccc3OCCO)C[C@@H]2C1,7.125
COc1ccccc1C(N)c1noc(C)n1 (centres unmarked),10.55
COCCC(C)(O)C(C)(C)CN (centres unmarked),4.493
Cn1cnnc1C1CCN(CC2CCOC2)CC1 (centres unmarked),-17.26
CCC[C@H]1CN(C(=O)CCn2cnnn2)C[C@@H]1N,16.02
Clc1cnccc1CN1CCC2(CCOC2)C1 (centres unmarked),18.95
CNCC(=O)NCc1cnc(-c2cccc(OC)c2)s1,49.45
Cn1ccnc1CCNC(=O)C1(C)CCCO1 (centres unmarked),8.541

The last 4 entries again:

Compound,Percent Effect
CCC[C@H]1CN(C(=O)CCn2cnnn2)C[C@@H]1N,16.02
Clc1cnccc1CN1CCC2(CCOC2)C1 (centres unmarked),18.95
CNCC(=O)NCc1cnc(-c2cccc(OC)c2)s1,49.45
Cn1ccnc1CCNC(=O)C1(C)CCCO1 (centres unmarked),8.541